{
  "source": "patent US20160303156A1",
  "about": "(priority 2014, published 2016)",
  "key": {"[1]": {"test_system": "excretion of phenol red (secretory function of the respiratory tract)", "test": "Effect on excretion of phenol red in mice", "type": "in vivo, Kunming mice", "experimental": "Kunming mice, female:male 1:1, weight 30-40 g, available from Guangdong Medical Laboratory Animal Center. […] Hitachi 3010 UV and visible spectrophotometer. […] After 30 min, the mice were sacrificed, and the trachea was detached. A section of the trachea from the thyroid cartilage to a branch of the trachea was excised, and placed in a test tube containing 3 ml of saline, to which 0.1 ml of a 15% sodium bicarbonate solution was then added. After centrifugation, the supernatant was taken and measured for the OD value at 546 nm. The phenol red content was calculated from a phenol red standard curve. […] If the drug can improve the secretory function of the respiratory tract, the excretion of phenol red can be enhanced."}, "[2]": {"test_system": "citric acid induced cough", "test": "Inhibition on citric acid induced cough in guinea pig", "type": "in vivo, Hartley guinea pigs", "experimental": "1.1 Test animals: qualified Hartley guinea pigs, weight 250-300 g, female:male 1:1, available from Guangdong Medical Laboratory Animal Center.\n1.3 Instrument: YLS-8A cough and asthma inducing instrument (a product available from Equipment Station of Shandong Academy of Medical Sciences).\nThe guinea pigs in each group were administered by oral gavage at a dosage of 0.5 ml/100 g of body weight, and equal volume of saline was given to the animals in the blank control group. 1 h after administration by oral gavage, the animals received spray of citric acid for 7 min. After the spray was completed, the cough counts were observed and recorded in ten minutes from the start of the spray (the typical cough is loud and clear and often accompanied by a forward rush)."}},
  "note": "Structures can show the parent of a compound that is named as a salt.",
  "data": [
    {"molecule": "O=C(O)COCCN1CCN([C@H](c2ccccc2)c2ccc(Cl)cc2)CC1", "note": "[Levocetirizine hydrochloride, levocetirizine hydrochloride]", "values": [
      {"measurement": "Effect on excretion of phenol red / sputum reducing effect (in words)", "setting": "[1]", "result": "obviously enhance the excretion of phenol red"},
      {"measurement": "Phenol red concentration", "setting": "[1]; oral gavage 2 days, trachea wash 30 min after i.p. phenol red, n = 10", "result": "1.13 ± 0.64 ^ μg/ml"},
      {"measurement": "Cough relieving effect (in words)", "setting": "[2]; citric acid induced cough", "result": "obvious cough relieving effect"},
      {"measurement": "Cough count", "setting": "[2]; oral gavage, citric acid spray 7 min 1 h after dosing, coughs in ten minutes, n = 8", "result": "26.3 ± 7.1 ^"}
    ]}
  ]
}
